Data: article PMC6376265, “A sequence conserved between CD5 and CD6 binds an FERM domain and exerts a restraint on T‐cell activation” (Immunology, 2018)
These are yes or no findings as the source states them, for the method shown. In cells and extracts the contact can be indirect. A yes stands for co-enrichment or nearness to the bait. Other partners may have been found. A no says only that the protein was not detected with the bait.

Amino acid sequences for entries named in this document (tags omitted).
UniProt P26038: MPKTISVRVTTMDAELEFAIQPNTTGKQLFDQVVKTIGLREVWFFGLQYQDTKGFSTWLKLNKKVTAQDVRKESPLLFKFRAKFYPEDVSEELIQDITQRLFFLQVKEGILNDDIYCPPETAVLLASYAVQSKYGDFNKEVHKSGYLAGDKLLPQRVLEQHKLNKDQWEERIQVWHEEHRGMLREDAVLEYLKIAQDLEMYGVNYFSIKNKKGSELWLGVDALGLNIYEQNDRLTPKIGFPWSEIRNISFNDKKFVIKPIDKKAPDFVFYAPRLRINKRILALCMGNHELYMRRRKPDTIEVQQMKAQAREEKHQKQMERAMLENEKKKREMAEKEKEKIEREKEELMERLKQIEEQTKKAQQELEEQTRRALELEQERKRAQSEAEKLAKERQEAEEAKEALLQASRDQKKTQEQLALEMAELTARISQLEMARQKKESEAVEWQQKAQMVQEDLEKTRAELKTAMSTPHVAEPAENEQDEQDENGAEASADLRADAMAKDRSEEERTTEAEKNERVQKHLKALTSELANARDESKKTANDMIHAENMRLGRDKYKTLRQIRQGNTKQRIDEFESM
UniProt O14745: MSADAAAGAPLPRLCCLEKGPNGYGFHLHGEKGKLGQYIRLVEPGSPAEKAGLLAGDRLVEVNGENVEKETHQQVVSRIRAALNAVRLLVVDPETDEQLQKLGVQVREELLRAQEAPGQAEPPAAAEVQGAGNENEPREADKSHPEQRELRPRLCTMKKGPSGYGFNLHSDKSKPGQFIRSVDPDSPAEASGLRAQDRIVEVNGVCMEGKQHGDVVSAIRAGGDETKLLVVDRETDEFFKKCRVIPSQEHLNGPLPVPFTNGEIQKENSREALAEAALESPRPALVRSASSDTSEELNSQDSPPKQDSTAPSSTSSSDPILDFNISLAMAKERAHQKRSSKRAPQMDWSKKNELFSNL
UniProt Q15599: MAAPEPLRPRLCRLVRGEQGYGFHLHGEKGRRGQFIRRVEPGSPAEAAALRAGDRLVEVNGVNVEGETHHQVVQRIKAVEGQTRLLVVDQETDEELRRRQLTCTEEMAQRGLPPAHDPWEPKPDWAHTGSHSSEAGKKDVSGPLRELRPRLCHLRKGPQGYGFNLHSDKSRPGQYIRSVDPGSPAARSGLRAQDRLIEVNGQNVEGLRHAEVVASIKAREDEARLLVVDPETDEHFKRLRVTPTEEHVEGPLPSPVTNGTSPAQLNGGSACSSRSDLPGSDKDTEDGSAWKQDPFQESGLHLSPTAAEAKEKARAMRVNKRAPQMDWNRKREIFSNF
UniProt P15311: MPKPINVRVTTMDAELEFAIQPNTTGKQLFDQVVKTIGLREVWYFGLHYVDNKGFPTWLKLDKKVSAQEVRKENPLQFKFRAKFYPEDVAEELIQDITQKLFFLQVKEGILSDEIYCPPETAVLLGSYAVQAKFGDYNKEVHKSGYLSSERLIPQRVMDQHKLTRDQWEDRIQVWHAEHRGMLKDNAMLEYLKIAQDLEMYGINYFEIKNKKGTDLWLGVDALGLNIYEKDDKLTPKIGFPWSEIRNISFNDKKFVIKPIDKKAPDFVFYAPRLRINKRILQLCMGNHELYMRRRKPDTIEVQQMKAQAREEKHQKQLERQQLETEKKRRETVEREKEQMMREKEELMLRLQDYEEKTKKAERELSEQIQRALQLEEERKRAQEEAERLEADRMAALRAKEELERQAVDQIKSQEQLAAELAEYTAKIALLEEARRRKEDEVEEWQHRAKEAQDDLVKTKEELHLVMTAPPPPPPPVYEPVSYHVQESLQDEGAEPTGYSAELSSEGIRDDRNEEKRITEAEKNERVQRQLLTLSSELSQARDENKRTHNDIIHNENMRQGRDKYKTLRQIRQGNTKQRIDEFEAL
UniProt P35241: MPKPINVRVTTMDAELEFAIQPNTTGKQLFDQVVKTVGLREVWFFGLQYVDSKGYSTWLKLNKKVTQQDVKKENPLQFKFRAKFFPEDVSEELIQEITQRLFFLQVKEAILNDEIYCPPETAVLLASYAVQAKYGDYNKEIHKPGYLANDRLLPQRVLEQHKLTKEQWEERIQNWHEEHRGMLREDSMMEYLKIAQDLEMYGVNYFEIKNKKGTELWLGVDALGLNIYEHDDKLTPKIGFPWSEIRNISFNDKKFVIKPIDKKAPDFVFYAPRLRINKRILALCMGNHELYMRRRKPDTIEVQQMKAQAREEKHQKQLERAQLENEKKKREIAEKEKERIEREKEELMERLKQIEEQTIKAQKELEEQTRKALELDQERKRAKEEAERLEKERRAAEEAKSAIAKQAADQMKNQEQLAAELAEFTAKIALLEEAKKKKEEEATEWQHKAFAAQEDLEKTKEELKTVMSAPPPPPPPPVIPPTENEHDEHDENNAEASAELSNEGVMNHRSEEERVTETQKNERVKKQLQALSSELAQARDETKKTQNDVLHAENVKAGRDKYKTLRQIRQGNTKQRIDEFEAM

These substances were tested against T1, control peptide (CD5) (human) (assay: affinity purification with mass spectrometry; peptides immobilized on magnetic beads and used to isolate interacting proteins from Jurkat T-cell lysates; on-filter digest, LC-MS/MS (Q Exactive), MASCOT; only the target purified).
T1 sequence (peptide, biotinylated at the N terminus): HVDNEYSQPPRNS

Substance | binding
Moesin (from UniProt P26038 1-577) | no binding
Na+/H+ exchange regulatory cofactor (NHE-RF) 1 (from UniProt O14745 1-358) | no binding
Na+/H+ exchange regulatory cofactor (NHE-RF) 2 (from UniProt Q15599 1-337) | no binding

The remaining lines, values ahead:

binding | Substance
no binding | Ezrin (from UniProt P15311 1-586)
no binding | Radixin (from UniProt P35241 1-583)
